Source: paper PMC12670400, “LEKTI-Grafted Sunflower Trypsin Inhibitor: A Potential Therapeutic for Skin Diseases” (Journal of Medicinal Chemistry, 2025)

The chains behind the UniProt entries cited, without tags or fusion partners. Where a name states a change or a piece, a line headed by the entry shows the natural chain unless it says otherwise.
UniProt P49862: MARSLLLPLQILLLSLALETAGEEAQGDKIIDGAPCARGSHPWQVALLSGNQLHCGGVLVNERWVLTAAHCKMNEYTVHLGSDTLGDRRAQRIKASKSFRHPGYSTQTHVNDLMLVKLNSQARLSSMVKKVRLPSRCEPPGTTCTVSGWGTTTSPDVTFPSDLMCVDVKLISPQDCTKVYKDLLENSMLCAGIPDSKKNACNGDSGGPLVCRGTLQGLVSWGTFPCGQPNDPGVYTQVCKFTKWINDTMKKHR

Target: KLK7 (Homo sapiens, UniProt P49862)
Experiment: enzyme inhibition assay (fluorogenic substrate); selectivity: inhibition of KLK7, KLK8 or KLK14 activity by the peptide, n = 3; substrates and conditions in the Supporting Information; both purified

B1: LEKTI-grafted SFTI analogue, lead 7 (peptide)
peptide: GFCTRSNPPECWPN
modifications: head-to-tail cyclised backbone; oxidised (disulfide)
  binding: no binding (tested: >1 μm)

No constants are given. Whether binding was seen depends on the method and setting.
